According to patent US11304930B2, “Ammonium salts of 3-(3,5-dibromo-4-hydroxybenzyliden)-5-indo-1,3-dihydroindol-2-one and uses thereof” (Metagone Biotech Inc., priority 2018, dated 2022):
Some results were stated once for a whole list of compounds, not compound by compound. At least one structure is not confirmed: it was looked up by name or label, or the drawing left a doubt. Some compounds share one range, which may span the group rather than tell each member.

Test system: SUN-1 cells
Assay: MTS cell viability / proliferation assay
Format: cell-based
Conditions: for growth inhibition: SUN-1 cells, 72 hrs; for growth inhibition compared to the control: SUN-1 gastric cancer cells, 48 hrs
Experimental: Gastric cancer cell line SUN-1 was purchased from the American Type Culture Collection (ATCC; Manassas, Va., USA) and were maintained in Roswell Park Memorial Institute-1640 (RPMI-1640) supplemented with 1.5 g/L sodium bicarbonate, 10% fetal bovine serum (FBS), 1.0% antibiotic-antimycotic, L-glutamine (2.0×10^−3 M), and 1.0% nonessential amino acids.
MTS cell proliferation assay kit (Abcam, Cambridge, UK) was used to evaluate cell viability. Briefly, SNU-1 cells were seeded in each well of a 96-well plate at the density of 8,000 cells/well and incubated overnight at 37° C. Cells were then treated with a test drug for 48 or 72 h at 37° C. Then, 20 μl MTS/well was added and incubated for 3 h at 37° C. Cell viability was measured by absorbance at 490 nm in a microplate reader.
To validate the bioactivity of the ammonium salts of GW5074 of Example 1, their effects on cell proliferation with or without the addition of another cell proliferation inhibitor-sorafenib, were investigated using MTS cell proliferation assay kit in accordance with the manufacturer's protocols. Results are illustrated FIGS. 1A and 1B.

[1] = single agent, sorafenib 5 mM, GW5074 and salts 10 mM

| Structure (SMILES) | growth inhibition (single agent) | growth inhibition compared to the control (in combination with sorafenib) | growth inhibition compared to the control [1] |
| --- | --- | --- | --- |
| O=C1Nc2ccc(I)cc2C1=Cc1cc(Br)c([O-])c(Br)c1.[Na+] [MG-A1, Sodium Salts of GW5074] | 40-60% | 55-60% | 10-20% |
| CC(C)(N)CN.O=C1Nc2ccc(I)cc2C1=Cc1cc(Br)c(O)c(Br)c1 [MG-A2, 2-Amino-2-Methylpropylamine Salt of GW5075] | 40-60% | 55-60% | 10-20% |
| CNC(=O)c1cc(Oc2ccc(NC(=O)Nc3ccc(Cl)c(C(F)(F)F)c3)cc2)ccn1 [sorafenib] | 40-60% | – | – |
| O=C1Nc2ccc(I)cc2C1=Cc1cc(Br)c(O)c(Br)c1 [GW5074, 3-(3,5-dibromo-4-hydroxybenzyliden)-5-iodo-1,3-duhydroindol-2-one] | 40-60% | 55-60% | 10-20% |
